Test results from paper PMC12061250.
Results are given in words; binding and its absence hold for the method and conditions named. In cells and extracts the contact can be indirect. Some results given as binding are weak or reduced against the parent protein; the word gives no strength.

Sequences of proteins named here, by UniProt entry; tags and fusion partners are left off. Residues count along the entry.
UniProt P49841: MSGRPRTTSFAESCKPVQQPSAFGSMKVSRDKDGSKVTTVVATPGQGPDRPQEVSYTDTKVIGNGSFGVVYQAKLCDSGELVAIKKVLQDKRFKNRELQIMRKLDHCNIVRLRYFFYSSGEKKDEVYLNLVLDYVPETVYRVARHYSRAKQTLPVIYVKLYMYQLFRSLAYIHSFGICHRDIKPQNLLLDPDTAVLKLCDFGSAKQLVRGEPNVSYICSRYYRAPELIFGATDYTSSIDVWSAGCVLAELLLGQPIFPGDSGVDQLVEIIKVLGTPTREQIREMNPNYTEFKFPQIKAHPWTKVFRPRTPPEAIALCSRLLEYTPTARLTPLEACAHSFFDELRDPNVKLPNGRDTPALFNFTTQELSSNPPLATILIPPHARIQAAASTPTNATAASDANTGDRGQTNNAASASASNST
UniProt P11021, residues 19-654: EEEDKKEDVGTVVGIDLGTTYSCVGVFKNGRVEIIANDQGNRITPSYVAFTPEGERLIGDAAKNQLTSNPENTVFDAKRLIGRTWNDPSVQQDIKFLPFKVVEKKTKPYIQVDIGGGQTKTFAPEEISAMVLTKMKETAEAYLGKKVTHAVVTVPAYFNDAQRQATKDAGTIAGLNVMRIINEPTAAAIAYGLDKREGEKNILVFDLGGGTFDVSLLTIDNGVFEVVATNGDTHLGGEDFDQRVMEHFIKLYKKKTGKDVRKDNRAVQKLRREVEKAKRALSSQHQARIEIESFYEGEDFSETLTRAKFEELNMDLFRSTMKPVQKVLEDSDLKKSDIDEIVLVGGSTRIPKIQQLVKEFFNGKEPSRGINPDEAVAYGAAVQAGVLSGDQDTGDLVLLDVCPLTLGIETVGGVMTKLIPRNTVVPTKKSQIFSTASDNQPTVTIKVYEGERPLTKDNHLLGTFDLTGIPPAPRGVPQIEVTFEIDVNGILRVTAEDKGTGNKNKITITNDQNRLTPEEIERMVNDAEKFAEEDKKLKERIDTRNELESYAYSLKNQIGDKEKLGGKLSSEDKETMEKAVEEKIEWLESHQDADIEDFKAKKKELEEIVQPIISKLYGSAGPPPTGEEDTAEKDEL

Molecular target: Glycogen synthase kinase 3β (human (endogenous in macrophages from ITP patients)) (UniProt P49841)
Assay: co-IP; macrophage lysate (ITP patients; lanes M0, M1, M2) precipitated with anti GSK-3β antibody and protein A/G magnetic beads at 4 °C overnight; western blot

HSPA5 (also known as GRP78 and BiP) (from UniProt P11021 19-654)
binding: binds
